Test results as given in US20200109212A1.
No constants are given. Whether binding was seen depends on the method and setting. Some binding calls cover weakened binding; strength is not graded here.

Assays:
[1] = biological target: canine PD-L1 extracellular domain-human IgG1 Fc fusion protein (canine); test: ELISA, plate coated with canine PD-L1-hFc, detected with anti-mouse IgG-HRP
[2] = biological target: canine PD-L1 extracellular domain-human IgG1 Fc fusion protein (canine); test: ELISA, plate coated with canine PD-L1-hFc, two-fold dilutions of mAb, detection with HRP goat anti-mouse IgG, OD 650/490
[3] = biological target: canine PD-L1 extracellular domain-human IgG1 Fc fusion protein (canine); test: cell-based ELISA (CELISA): mAb pre-incubated with cPD-L1-hFc, then added to CHO cells expressing canine PD-1; bound cPD-L1-hFc detected with anti-human Fc-HRP, OD 450-620 nm; blocked partner: canine PD-1

Measured: binding

B1: mouse anti-canine PD-L1 monoclonal antibody 4F9 (antibody, V domains shown)
VH: EVQLVESGGGLVKPGGSLKLSCAASGFTFSSYAMSWVRQTPDKRLEWVATISDGGSYTHYPDNLMGRFTISRDNAKNNLYLQMSHLKSDDTAMYYCARESYDGYYVANWGQGTLVTVSA
VL: DIVLTQSPATLSVNPGDSVSLSCRASQSISNNLHWYQQKSHESPRLLIKYASQSISGIPSRFSGSGSGTDFTLSINSVETEDFGMYFCQQSNSWPQTFGGGTKLEIK
binds: all assays above
